Reference: US6646003B2, “Method of treating ocular inflammatory and angiogenesis-related disorders of the posterior segment of the eye using an amide derivative of flurbiprofen or ketorolac” (Alcon, Inc., priority 2001, dated 2003)
Some results were stated once for a whole list of compounds, not compound by compound. For at least one compound, name, drawing or mass did not settle the structure. Some ranges recur; such a range may be that of the whole group of compounds.

Test: in vitro corneal drug permeation (perfusion chamber, HPLC)
Type: in vitro ADME, NZA rabbits
Conditions: continued drug perfusion of the corneal epithelium, excised rabbit cornea, GBR buffer
Description: Freshly excised corneas were obtained from 6-week old NZA rabbits (1.3-1.5 kg). Corneas were mounted in a modified Lucite perfusion chamber and perfused with glutathione-supplemented bicarbonated Ringer (GBR) buffer as previously described^1. Drug concentrations in GBR buffer were as indicated (FIG. 1), with the corneal epithelial cell layer facing the drug containing donor compartment. The final volume of the donor and receiver side of the perfusion chamber was 7.0 mL. Samples of 0.1 mL were withdrawn from both chambers at the beginning of the experiment and at 20 to 30 minute intervals thereafter through six hours. Samples were mixed with an equal volume of methanol and immediately subjected to HPLC analysis. HPLC analysis was carried out on a 25 cm×4.6 mm I.D. Spherosorb RP-18, 10μ column at a flow rate of 2.0 ml/min. The column effluent was monitored with a flow monitor at a wavelength of 230 nm. Elution of NSAID free acids and amides was accomplished with an eluant mixture composed of methanol:water:phosphoric acid (60/40/1 (v/v/v)) (pH 3.0). The eluant mixture was changed to methanol:water:phosphoric acid (60/40/1 (v/v/v)) (pH 3.0) when suprofen and suprofen amide were subjected to HPLC analysis.

| Compound | permeation coefficient |
| --- | --- |
| CC(C(N)=O)c1ccc(C(=O)c2cccs2)cc1 (stereo not drawn) [amide derivative of suprofen, α-methyl-4-(2-thienylcarbonyl)-benzeneacetamide] | 3.7-5.7 cm/min^−1×10^−5 |
| CN(C)C(=O)Cc1cccc(C(=O)c2ccc(Br)cc2)c1N [dimethyl amide derivative of bromfenac, N,N-dimethyl 2-amino-3-(4-bromobenzoyl)benzeneacetamide] | 3.7-5.7 cm/min^−1×10^−5 |
| NC(=O)Cc1cccc(C(=O)c2ccc(Br)cc2)c1N [amide derivative of bromfenac] | 3.7-5.7 cm/min^−1×10^−5 |
| CNC(=O)Cc1cccc(C(=O)c2ccc(Br)cc2)c1N [monomethyl amide derivative of bromfenac, N-methyl 2-amino-3-(4-bromobenzoyl)benzeneacetamide] | 3.7-5.7 cm/min^−1×10^−5 |
